{"sequences": {"note": "Protein sequences, listed by entry. Tags and fused reporters are not part of them.", "UniProt Q15165": "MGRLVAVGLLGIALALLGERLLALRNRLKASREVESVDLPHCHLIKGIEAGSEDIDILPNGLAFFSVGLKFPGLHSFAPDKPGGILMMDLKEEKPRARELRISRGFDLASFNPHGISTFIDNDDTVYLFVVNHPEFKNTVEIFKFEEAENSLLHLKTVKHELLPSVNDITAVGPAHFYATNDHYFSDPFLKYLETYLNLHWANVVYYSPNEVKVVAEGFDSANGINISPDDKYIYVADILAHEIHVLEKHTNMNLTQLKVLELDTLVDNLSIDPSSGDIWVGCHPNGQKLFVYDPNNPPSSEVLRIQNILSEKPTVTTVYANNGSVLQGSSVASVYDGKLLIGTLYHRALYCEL", "UniProt Q62086": "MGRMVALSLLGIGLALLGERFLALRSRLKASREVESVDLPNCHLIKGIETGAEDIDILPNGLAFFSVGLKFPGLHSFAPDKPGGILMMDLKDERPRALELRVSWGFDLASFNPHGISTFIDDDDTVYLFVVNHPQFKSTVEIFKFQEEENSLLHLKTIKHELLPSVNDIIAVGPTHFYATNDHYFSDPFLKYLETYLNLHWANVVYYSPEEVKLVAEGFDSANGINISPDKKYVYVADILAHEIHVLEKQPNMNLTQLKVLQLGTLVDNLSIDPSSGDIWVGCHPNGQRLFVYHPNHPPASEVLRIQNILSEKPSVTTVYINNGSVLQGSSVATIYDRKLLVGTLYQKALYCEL"}, "source": "paper PMC4161380", "key": {"GST-DJ-1": {"target": "GST-DJ-1 (UniProt Q99497)", "assay": "pull-down; HEK293 cells expressing GST-DJ-1 or GST; cleared lysate (50 mM Tris HCl pH 7.5, 100 mM NaCl, 1 mM EDTA, 1 mM DTT, 0.2% NP-40) with glutathione sepharose 2-4 hours; Western blot with PON2 antibody"}, "[1]": {"target": "T1, DJ-1 (endogenous, murine cortical neurons) (mouse (endogenous in cortical neurons)) (UniProt Q99LX0)", "T1 sequence": "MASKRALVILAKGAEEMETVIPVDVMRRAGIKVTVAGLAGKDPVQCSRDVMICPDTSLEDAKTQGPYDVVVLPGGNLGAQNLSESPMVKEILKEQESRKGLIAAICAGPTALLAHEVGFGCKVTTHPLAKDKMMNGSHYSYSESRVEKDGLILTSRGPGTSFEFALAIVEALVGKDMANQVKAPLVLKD", "assay": "co-IP; endogenous proteins in lysate of cultured murine cortical neurons; DJ-1 antibody overnight and TrueBlot IgG beads; Western blot with PON2 antibody"}, "Myc-PON2": {"target": "Myc-PON2 (UniProt Q15165)", "assay": "co-IP; HEK293 cells transfected with Myc-PON2; lysate with Myc antibody overnight and TrueBlot IgG beads; Western blot with DJ-1 antibody for endogenous DJ-1"}}, "note": "Results are given in words; binding and its absence hold for the method and conditions named. In cells and extracts the contact can be indirect. Some binding calls cover weakened binding; strength is not graded here.", "data": [{"substance": "Paraoxonase-2 (endogenous, HEK293) (from UniProt Q15165 1-354) (enzyme)", "values": [{"measurement": "binding", "setting": "GST-DJ-1", "result": "binds"}]}, {"substance": "Paraoxonase-2 (endogenous, murine cortical neurons) (from UniProt Q62086 1-354) (enzyme)", "values": [{"measurement": "binding", "setting": "[1]", "result": "binds"}]}, {"substance": "DJ-1 (endogenous, HEK293) (from UniProt Q99497 1-189)", "values": [{"measurement": "binding", "setting": "Myc-PON2", "result": "binds"}]}]}
